At least one structure is not confirmed: it was looked up by name or label, or the drawing left a doubt.
Assay: biodistribution of 131I-PUH71 in nude mice
Assay type: in vivo

CC(C)NCCCn1c(Sc2cc3c(cc2[131I])OCO3)nc2c(N)ncnc21 [^131I-PUH71]
clearance of excess agent from the blood, heart, lung, spleen and muscle: rapid clearance

Reference: patent publication US10201623B2, “HSP90-targeted cardiac imaging and therapy” (Memorial Sloan-Kettering Cancer Center, priority 2013, dated 2019)
